# Source: PubChem BioAssay AID540276 (National Center for Advancing Translational Sciences (NCATS), 2011)
# Values joined by “and” are separate entries in the source; they are usually repeats but may differ in a detail not shown here. Identical values can stand only once. The whole screen tested about 300,000 compounds, of which about 5,400 (1.8%) were called active. This list was built around the results that the source calls inconclusive (neither active nor inactive); the mix of calls is not that of the screen. Calls come from the whole dose curve; tested in HEK293 cells. Potencies of inconclusive entries are doubtful fits and often do not repeat.
# Test: qHTS for inhibitors of binding or entry into cells for Marburg Virus
# Conditions: Marburg virus pseudotyped entry inhibition, cell reporter; activity change, negative = inhibition: at 37.8 µM (top of the series) unless noted
# % is set by controls: 0 for no effect and ±100 for the full control effect; potency is the fitted concentration of half-maximal effect.
Structure (SMILES),"activity change, negative = inhibition",Potency
COc1ccc(NC(=O)NC(C(F)(F)F)C(F)(F)F)cc1,inactive: 6.78%,–
CC(C)(C)NC(=O)c1cccc(NC(=O)c2ccc(NC(=O)c3ccco3)cc2)c1,–,"inconclusive: 6.51 µM [inhibitor, partial curve, poor fit]"
c1cc2c(cc1C1=Nn3c(nnc3C3CCCCC3)SC1)OCO2,–,"inconclusive: 23.1 µM [inhibitor, single point]"
Cc1cc(S(=O)(=O)N2CCCOC2CNC(=O)C(=O)NCCCN2CCOCC2)ccc1F (stereo unspecified),–,"inconclusive: 15.8 µM [activator, single point]"
O=C(Cc1cccs1)Nc1ccc(S(=O)(=O)Nc2ncccn2)cc1,inactive: 7.24%,–
CC(C)CC(OC(=O)c1nsc(Cl)c1Cl)C(=O)NCc1cccs1 (stereo unspecified),–,"inconclusive: 0.082 µM [inhibitor, partial curve, poor fit]"
Cc1cccc(NC(=O)c2cn(-c3ccccc3)nc2-c2ccccc2)c1C,–,"inconclusive: 4.47 µM [inhibitor, partial curve]"
COC(=O)c1c(C)nc2c(c(SC)nn2-c2ccccc2)c1N,–,"inconclusive: 22.4 µM [inhibitor, single point]"
COc1cccc(NS(=O)(=O)c2ccc3[nH]cc(C(=O)NC(C)c4ccccc4)c(=O)c3c2)c1 (stereo unspecified),inactive: 7.6% [at 46.1 µM],–
O=C1c2cccnc2C(=O)N1Cc1ccc(Cl)cc1,–,"inconclusive: 6.51 µM [inhibitor, single point]"
O=S(=O)(Nc1ccc2c(c1)nc1n2CCN(Cc2ccccc2)C1)c1ccccc1,inactive: 2.7%,–
CCOC(=O)C1(CCOc2ccccc2)CCN(Cc2ccc3c(c2)OCCO3)CC1,–,"inconclusive: 15.8 µM [inhibitor, partial curve, poor fit]"
O=C(NCCC1=CCCCC1)C(=O)NCC(c1ccco1)N1CCN(c2ccccc2F)CC1 (stereo unspecified),–,"inconclusive: 5.01 µM [inhibitor, full curve, poor fit]"
O=C1c2ccccc2C(=O)N1Cc1nc2ccccc2c(=O)n1CCCN1CCOCC1,inactive: 1.98%,–
O=C(c1ccc(CSc2nc3ccncc3[nH]2)cc1)N1CCN(c2cccc(Cl)c2)CC1,–,"inconclusive: 6.51 µM [inhibitor, partial curve, poor fit]"
CCc1cccc(C)c1NC(=O)CSc1nc2ccncc2[nH]1,–,"inconclusive: 6.31 µM [activator, full curve, poor fit]"
O=C(NC(=S)NNC(=O)c1cc2ccccc2cc1O)c1ccco1,–,"inconclusive: 6.31 µM [inhibitor, single point]"
CC(C)C(=O)Nc1nc2cc3c(cc2s1)OCCO3,–,"inconclusive: 10 µM [inhibitor, partial curve, poor fit]"
O=C(CC1CCCCC1)NCCCN1CCOCC1,inactive: -1.6%,–
Cc1ccc(C(=O)N2CCN(c3ccc(NC(=O)COc4ccccc4C)cc3)CC2)cc1,–,"inconclusive: 2.82 µM [activator, partial curve, poor fit]"
O=C(Nc1ccccc1)Nc1ccc(Oc2cccnc2)nc1,–,"inconclusive: 14.1 µM [inhibitor, single point]"
CN(C)CCNC(=O)c1ccccc1-c1cc2ccccc2c(=O)o1,–,"inconclusive: 35.5 µM [inhibitor, single point]"

Structure (SMILES),"activity change, negative = inhibition",Potency
Cc1cc(C)n(C2CCCCC2OC(=O)CCc2ccccc2)n1 (stereo unspecified),inactive: -14.1% [at 46.1 µM],–
NC(=O)C1CCCN(S(=O)(=O)c2ccccc2)C1 (stereo unspecified),inactive: -0.233%,–
CCC(C)Sc1nnc(NC(=O)C2CCN(C(=O)c3ccco3)CC2)s1 (stereo unspecified),–,"inconclusive: 7.08 µM [activator, partial curve, poor fit]"
N#CCOc1ccccc1/C=N/n1nnnc1N,inconclusive: 14.2% [activator],–
CCOc1ccc(CCNC(=O)CN2C(=O)CCSc3ccccc32)cc1OCC,inactive: 7.62% [at 46.1 µM],–
Cc1ccc(C(=O)Nc2c(C(=O)Nc3ccc(C)c(C)c3)sc3nc(C)cc(C)c23)cc1,–,"inconclusive: 35.5 µM [activator, partial curve, poor fit]"
Cc1ccc(-c2noc(-c3ccc(N4CCCC4)c([N+](=O)[O-])c3)n2)cc1,–,"inconclusive: 35.5 µM [inhibitor, single point]"
Cc1ccc(-n2ncc3c(NCc4cccnc4)ncnc32)c(C)c1,–,"inconclusive: 4.6 nM [inhibitor, full curve, poor fit] and inconclusive: 6.31 µM [inhibitor, single point]"
Cn1c(O)c(C=Nc2ccccc2)c(=O)n(C)c1=O,–,"inconclusive: 2.24 µM [activator, partial curve, poor fit]"
COc1ccc(N(C)S(=O)(=O)c2cccc(C(=O)N3CCN(S(=O)(=O)c4ccc(C)cc4)CC3)c2)cc1,–,"inconclusive: 12.6 µM [inhibitor, partial curve, poor fit]"
Cc1ccc(NC(=O)CCSc2nnc3ccccn23)cc1,–,"inconclusive: 1.26 µM [activator, partial curve, poor fit]"
CCOc1ccc(CN(CCc2ccc3c(c2)OCO3)Cc2ccc(OC)c(Br)c2)cc1,–,"inconclusive: 11.2 µM [inhibitor, partial curve, poor fit]"
COc1ccc(NC(=O)CSc2nnc(-c3ccoc3C)n2CC2CCCO2)cc1 (stereo unspecified),inactive: 5.02% [at 46.1 µM],–
Cc1ccc(S(=O)(=O)NCCc2nc3ccccc3[nH]2)cc1,inactive: -2% [at 46.1 µM],–
O=C(Nc1nccs1)c1cccc(S(=O)(=O)N2CCCCC2)c1,–,"inconclusive: 0.206 µM [inhibitor, full curve]"
CCCC1(c2ccccc2)NC(=O)N(CC(=O)Nc2ccccc2C(F)(F)F)C1=O (stereo unspecified),–,"inconclusive: 35.5 µM [inhibitor, single point]"
C=CCn1c(O)c(C(C)=Nc2ccc(N(C)C)cc2)c(=O)[nH]c1=O,–,"inconclusive: 23.1 µM [inhibitor, partial curve, poor fit]"
CN(C(=O)CSc1nc(-c2ccccc2)cn1N)C(c1ccccc1)c1ccccc1,–,"inconclusive: 3.66 µM [inhibitor, single point]"
CN(C)C1NC(=O)c2cc(-c3ccccc3)sc2N1 (stereo unspecified),–,"inconclusive: 2.24 µM [activator, single point]"
CC(=O)C(Cl)C(=O)Nc1ccccc1 (stereo unspecified),–,"inconclusive: 6.31 µM [inhibitor, full curve]"
CCOC(=O)C1CCCN(Cc2nc(CC3CC3)no2)C1 (stereo unspecified),–,"inconclusive: 0.631 µM [activator, full curve, poor fit]"
CN(C)/C=C/C(=O)c1ccc(N2CCN(c3ncc(C(F)(F)F)cc3Cl)CC2)cc1,–,"inconclusive: 17.8 µM [inhibitor, partial curve, poor fit]"

Structure (SMILES),"activity change, negative = inhibition",Potency
CCOc1ccc(C(C)=O)cc1CN1C(=O)NC2(CCCCCCC2)C1=O,–,"inconclusive: 0.158 µM [inhibitor, full curve, poor fit]"
CC(OC(=O)c1ccccc1NCc1ccco1)C(=O)Nc1ncc(Cl)cc1Cl (stereo unspecified),–,"inconclusive: 11.2 µM [inhibitor, single point]"
CCN(C)c1ccc(/C=N\n2nnnc2N)cc1,–,"inconclusive: 1.16 µM [inhibitor, full curve, poor fit]"
CC(=O)Nc1ccc(S(=O)(=O)Nc2cccc(-c3cn4c(n3)SCC4)c2)cc1,inactive: -0.66%,–
Cc1ccoc1C(=O)N1CCCC(CCC(=O)N2CCN(c3ccccn3)CC2)C1 (stereo unspecified),–,"inconclusive: 25.1 µM [inhibitor, single point]"
N/C(=N\OC(=O)c1ccc([N+](=O)[O-])cc1)c1ccc(Br)cc1,inactive: 11.3% [at 46.1 µM],–
c1cc(CSc2nnc(-c3ccc4c(c3)OCO4)o2)ccn1,–,"inconclusive: 0.141 µM [inhibitor, single point]"
COc1ccc(NC(=O)NC(C)c2c(-n3cccc3)sc(C)c2C)cc1OC (stereo unspecified),inactive: -7.63% [at 46.1 µM],–
CCOC(=O)c1sc2nc(C)nc(NCc3cccnc3)c2c1C,inactive: -0.684% [at 46.1 µM],–
COCCn1c(-c2ccc(Br)cc2)csc1=Nc1cccnc1,–,"inconclusive: 15.8 µM [inhibitor, single point]"
O=C(COc1ccc(F)cc1Cl)Nc1ccc(N2CCOCC2)cc1N1CCOCC1,–,"inconclusive: 35.5 µM [inhibitor, single point]"
CCOc1c(Cl)cc(CNc2ccc3[nH]c(=O)[nH]c3c2)cc1OC,–,"inconclusive: 20 µM [inhibitor, partial curve, poor fit]"
O=C(O)CCn1c(C2CCCCC2)nc2ccccc21,–,"inconclusive: 5.8 µM [activator, full curve, poor fit]"
Fc1cnc(N2CCOCC2)nc1N1CCOCC1,–,"inconclusive: 3.98 µM [activator, full curve]"
CCOc1ccc(C(=O)Nc2ccc(C(=O)N3CCOCC3)cc2)c(OCC)c1,inactive: -18.2%,–
OCC(O)C1OCOC(C(O)CO)C1O (stereo unspecified),–,"inconclusive: 3.55 µM [inhibitor, single point]"
Cc1c(NC(=O)/C(C#N)=C/c2ccc(-c3ccccc3Cl)o2)c(=O)n(-c2ccccc2)n1C,–,"inconclusive: 11.2 µM [inhibitor, single point]"
CCN(C(=O)CSc1nc2cc(C(=O)O)ccc2c(=O)n1-c1ccccc1F)C1CCS(=O)(=O)C1 (stereo unspecified),–,"inconclusive: 4.47 µM [activator, full curve, poor fit]"
CCCCc1nc(NCCN)c(C#N)c2c1CSC(C)(C)C2,–,"inconclusive: 10 µM [inhibitor, partial curve, poor fit]"
C/C(CC(=O)Nc1ccccc1Br)=N\NC(=O)C(=O)N1CCCC1,inactive: -5.77%,–
CCCn1c2ccccc2c2cnn(CC(=O)NCCN(CC)CC)c(=O)c21,–,"inconclusive: 35.5 µM [inhibitor, single point]"
COc1ccc(-c2nc3ccccc3o2)cc1NC(=O)c1cccnc1,inactive: -29.4% [at 46.1 µM],–
